{"source": "patent US20050164903A1", "about": "“Complexed surfactant system” (priority 2001, published 2005)", "experiment": "Measurement of Krafft point (cloudiness on cooling, transparency on re-heating)", "type": "physicochemical", "details": "1% solution", "description": "In the Krafft point test, the temperature when the solution clouded through the previous test becomes transparent again while elevating the temperature were measured.\nThe temperature when cloudiness begins was measured while cooling the transparent cationic compound solution (condition of lowering temperature). Additionally, the temperature when the solution becomes transparent was measured while elevating the temperature of the cloudy solution (condition of elevating temperature).\nAlso, while elevating the temperature of the clouded solution, temperatures when the solutions became transparent again were measured (condition when elevating temperature).", "note": "Some results were stated once for a whole list of compounds, not compound by compound. For at least one compound, name, drawing or mass did not settle the structure.", "data": [{"molecule": "CCCCCCCCCCCC[N+](C)(C)[O-]", "note": "[Synthesis Example 19, N-Dimethyl Lauryl Amineoxide]", "values": [{"measurement": "Krafft point, when lowering (dropping) temperature: cloudiness begins", "value": "< 0", "unit": "°C"}]}]}
